In paper PMC9854190 one finds binding data, which are given here for one molecule.

Amino acid sequences for entries named in this document (tags omitted). A change or cut given only in a name is not applied to a line headed by its entry.
UniProt P35462: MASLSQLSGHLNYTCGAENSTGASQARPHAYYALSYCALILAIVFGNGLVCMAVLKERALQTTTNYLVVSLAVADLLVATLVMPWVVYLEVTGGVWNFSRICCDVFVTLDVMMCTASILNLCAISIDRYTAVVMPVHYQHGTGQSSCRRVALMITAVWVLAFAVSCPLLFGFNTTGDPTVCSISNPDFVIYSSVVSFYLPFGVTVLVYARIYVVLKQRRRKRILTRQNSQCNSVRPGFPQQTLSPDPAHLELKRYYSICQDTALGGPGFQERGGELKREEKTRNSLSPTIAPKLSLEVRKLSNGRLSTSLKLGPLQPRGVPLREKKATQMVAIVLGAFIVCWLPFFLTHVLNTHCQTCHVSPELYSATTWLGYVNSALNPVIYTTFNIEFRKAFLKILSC
UniProt P49407: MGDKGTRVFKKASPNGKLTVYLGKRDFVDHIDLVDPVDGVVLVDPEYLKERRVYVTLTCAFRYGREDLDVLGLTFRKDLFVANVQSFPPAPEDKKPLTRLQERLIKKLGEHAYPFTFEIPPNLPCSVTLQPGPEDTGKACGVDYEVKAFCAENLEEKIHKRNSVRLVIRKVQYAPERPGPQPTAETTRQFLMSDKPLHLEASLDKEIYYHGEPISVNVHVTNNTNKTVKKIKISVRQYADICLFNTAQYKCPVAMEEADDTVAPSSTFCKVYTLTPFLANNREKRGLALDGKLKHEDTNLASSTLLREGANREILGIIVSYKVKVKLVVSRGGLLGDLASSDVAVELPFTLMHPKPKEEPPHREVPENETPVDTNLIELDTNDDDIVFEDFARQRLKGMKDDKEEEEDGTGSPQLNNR

Results are given in words; binding and its absence hold for the method and conditions named. Binding seen in cells or lysates may run through a third protein. Some entries that bind do so weakly or less than the wild type. Sequences can lack the tags named with a protein.

The target in experiment [1] is FLAG-D3R (dopamine D3 receptor) (UniProt P35462). As to the kind of experiment: co-IP; HEK-293 cells expressing D3R, transfected; treated with vehicle, 30 nM DA or 100 nM quinpirole (once or washed and re-challenged, desensitization protocol); also Con-KD and Mdm2-KD cells; RIPA lysates, anti-M2 FLAG agarose beads overnight at 4 °C; co-IP blotted for HA or importin β1.

The target of experiment [2] is FLAG-arrestin2 (UniProt P49407). Described as above.

B1: HA-USP33 (ubiquitin-specific protease 33) (enzyme, UniProt Q8TEY7-2 1-911)
chain: MSAFRNHCPHLDSVGEITKEDLIQKSLGTCQDCKVQGPNLWACLENRCSYVGCGESQVDHSTIHSQETKHYLTVNLTTLRVWCYACSKEVFLDRKLGTQPSLPHVRQPHQIQENSVQDFKIPSNTTLKTPLVAVFDDLDIEADEEDELRARGLTGLKNIGNTCYMNAALQALSNCPPLTQFFLDCGGLARTDKKPAICKSYLKLMTELWHKSRPGSVVPTTLFQGIKTVNPTFRGYSQQDAQEFLRCLMDLLHEELKEQVMEVEEDPQTITTEETMEEDKSQSDVDFQSCESCSNSDRAENENGSRCFSEDNNETTMLIQDDENNSEMSKDWQKEKMCNKINKVNSEGEFDKDRDSISETVDLNNQETVKVQIHSRASEYITDVHSNDLSTPQILPSNEGVNPRLSASPPKSGNLWPGLAPPHKKAQSASPKRKKQHKKYRSVISDIFDGTIISSVQCLTCDRVSVTLETFQDLSLPIPGKEDLAKLHSSSHPTSIVKAGSCGEAYAPQGWIAFFMEYVKRFVVSCVPSWFWGPVVTLQDCLAAFFARDELKGDNMYSCEKCKKLRNGVKFCKVQNFPEILCIHLKRFRHELMFSTKISTHVSFPLEGLDLQPFLAKDSPAQIVTYDLLSVICHHGTASSGHYIAYCRNNLNNLWYEFDDQSVTEVSESTVQNAEAYVLFYRKSSEEAQKERRRISNLLNIMEPSLLQFYISRQWLNKFKTFAEPGPISNNDFLCIHGGVPPRKAGYIEDLVLMLPQNIWDNLYSRYGGGPAVNHLYICHTCQIEAEKIEKRRKTELEIFIRLNRAFQKEDSPATFYCISMQWFREWESFVKGKDGDPPGPIDNTKIAVTKCGNVMLRQGADSGQISEETWNFLQSIYGGGPEVILRPPVVHVDPDILQAEEKIEVETRSL
With B1, the binding entry in experiment [1] and in experiment [2] was “binds” each time.
